# Test results reported in PubChem BioAssay AID651610 (Broad Institute, 2012).
# Out of some 360,000 compounds screened, about 3,900 (1.1%) were called active. The source calls these results inconclusive, neither active nor inactive.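 The calls were made as follows: active = mean replicate inhibition score of at least 50 and every replicate individually at or above 50; inconclusive = only one of the two criteria met; inactive = mean below 50 and not all replicates reaching 50.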
# Assay: inhibitors of HIV-1 Env-driven cell-cell fusion, primary screen, HeLa-JRFL effector, CEM21 target cells, luciferase (AID 651610);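 also: 0% = plate neutral controls and 100% = maraviroc near 300 nM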
# Conditions: at 12.3 µM, active compounds read high
row,Structure (SMILES),inhibition
1,CP(=O)(OC12CC3CC(CC(C3)C1)C2)OC12CC3CC(CC(C3)C1)C2,inconclusive: 48.2%
